# Assay results

Data taken from PubChem BioAssay AID1053133, deposited by Broad Institute (2014).

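Plate-reader measure of the Venus reporter marking one vaccinia stage in infected cells (the cell line is not named here); read time unknown.
The test concentration is not given here.
Percent change in Venus reporter signal; lower (more negative) values mean stronger inhibition of that viral stage.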

Values are in %.
How 0% and 100% were set is not given here.
Common to all entries: measured here: Venus reporter, other viral stage.
Part of the compounds only, not a random draw; the main read-out is not listed here.

| Compound | activity change (Venus) (%) |
|---|---|
| `CCCN(C)C[C@H]1Oc2cc(/C=C/c3ccccc3)ccc2S(=O)(=O)N([C@@H](C)CO)C[C@H]1C` | -32.05 |
| `C[C@@H]1CN([C@@H](C)CO)C(=O)Cc2cc(NC(=O)Nc3ccc(C(F)(F)F)cc3)ccc2O[C@@H]1CN(C)CC1CC1` | -47.73 |
| `CNC[C@H]1Oc2ncc(-c3ccc(C)cc3)cc2C(=O)N([C@@H](C)CO)C[C@H]1C` | -35.48 |
| `C[C@@H]1CN([C@@H](C)CO)C(=O)Cc2cc(NC(=O)Cc3ccccc3)ccc2O[C@H]1CN(C)Cc1ccc(Oc2ccccc2)cc1` | -49.76 |
| `O=C(Cc1ccccc1)N1CC(=O)N2[C@H](CO)[C@H](c3ccc(C#Cc4ccccc4)cc3)[C@@H]2C1` | -26.36 |
| `COc1ccc(COC[C@@]23Oc4ccccc4[C@@H](NC(=O)N2C)[C@H]3COC(=O)c2ccc([N+](=O)[O-])cc2)cc1` | -36.47 |
| `C[C@H](CO)N1C[C@H](C)[C@H](CN(C)C(=O)CN2CCOCC2)Oc2cc(C#Cc3cccc(F)c3)ccc2S1(=O)=O` | -29.95 |
| `C[C@@H]1CN([C@H](C)CO)C(=O)c2cc(NC(=O)Nc3ccc(C(F)(F)F)cc3)ccc2O[C@@H]1CN(C)CC1CC1` | -31.93 |
| `C[C@H]1CCCCO[C@H](CN(C)Cc2ccccc2)[C@@H](C)CN([C@@H](C)CO)C(=O)c2cc(NC(=O)NC3CCCCC3)ccc2O1` | -54.55 |
| `C[C@H](NC(=O)N(C)C[C@@H]1OCc2ccccc2-c2c(n(C)c3ccccc23)C(=O)N([C@@H](C)CO)C[C@@H]1C)c1ccccc1` | -39.84 |
| `C[C@H]1CN([C@@H](C)CO)S(=O)(=O)c2ccc(/C=C/c3ccccc3)cc2O[C@@H]1CN(C)C` | -44.56 |
| `O=C(Nc1ccc(F)cc1)N1CCCCN2[C@@H](CO)[C@@H](c3ccc(C#Cc4ccccc4)cc3)[C@@H]2C1` | -101 |
| `COc1cccc(-c2ccc3c(c2)[C@H]2[C@H](CCN2Cc2ccccc2OC)[C@H](CO)N3)c1` | -15.07 |
| `C[C@@H]1CN([C@@H](C)CO)C(=O)c2cc(NC(=O)c3ccncc3)ccc2O[C@@H](C)CCCCO[C@@H]1CN(C)Cc1ccc(C(F)(F)F)cc1` | -51.43 |
| `C[C@@H]1CN([C@@H](C)CO)C(=O)c2cc(N(C)C)ccc2O[C@@H]1CN(C)Cc1ccc(C(=O)Nc2ccccc2N)cc1` | -38.97 |
| `C[C@H]1CN([C@@H](C)CO)C(=O)c2cc(C#Cc3ccc(F)cc3)cnc2O[C@@H]1CN(C)Cc1ccccn1` | -33.94 |
| `C[C@H](CO)N1C[C@H](C)[C@H](CN(C)C(=O)NC2CCCC2)Oc2ncc(C#CC3CCCCC3)cc2C1=O` | -30.6 |
| `CC(=O)N1Cc2cc(C(=O)NCc3cccc(F)c3)nc(-c3cccc(C4=CCCC4)c3)c2[C@@H]1CCO` | -41.92 |
| `CC(C)CC#Cc1ccc([C@@H]2[C@@H](CO)N3CCCCN(C(=O)c4ccc5c(c4)OCO5)C[C@@H]23)cc1` | -52.76 |
| `C[C@H]1CN([C@@H](C)CO)C(=O)Cc2cc(NC(=O)NC3CCCCC3)ccc2O[C@H]1CN(C)Cc1ccc(Oc2ccccc2)cc1` | -34.77 |
| `C[C@@H]1CN([C@H](C)CO)S(=O)(=O)c2ccc(C3=CCCCC3)cc2O[C@@H]1CN(C)C(=O)Cc1ccccc1` | -62.33 |
| `COc1cccc(S(=O)(=O)N2CCCCN3[C@@H](CO)[C@H](c4ccc(C#CC(C)C)cc4)[C@@H]3C2)c1` | -72.05 |
| `OC[C@H]1[C@H](c2ccc(C#Cc3ccccc3F)cc2)[C@H]2CN(CC3CCOCC3)CCCCN21` | -66.16 |
| `C[C@@H]1CN([C@H](C)CO)C(=O)c2cc(NC(=O)Cc3ccccc3)ccc2O[C@H]1CN(C)Cc1ccc(C(F)(F)F)cc1` | -38.17 |
| `CCCC#Cc1ccc([C@H]2[C@@H](CO)N3CCCCN(S(=O)(=O)c4ccccc4C)C[C@H]23)cc1` | -77.77 |
| `C[C@@H]1CN([C@@H](C)CO)S(=O)(=O)c2ccc(-c3ccccc3F)cc2O[C@@H]1CN(C)Cc1ccncc1` | -34.33 |
| `CN1c2ccc(-c3cccc(F)c3)cc2[C@@H]2[C@@H](CCN2C(=O)C2CCC2)[C@@H]1CO` | -61.29 |
| `COC(=O)N(C)C[C@@H]1OCc2cnnn2CCCC(=O)N([C@H](C)CO)C[C@@H]1C` | -49.36 |
| `C[C@@H]1CN([C@H](C)CO)C(=O)Cc2cc(NS(=O)(=O)c3ccc(Cl)cc3)ccc2O[C@H]1CN(C)Cc1ccc(Oc2ccccc2)cc1` | -37.57 |
| `CCCC#Cc1ccc2c(c1)O[C@@H](CN(C)Cc1cccnc1)[C@H](C)CN([C@H](C)CO)S2(=O)=O` | -39.67 |
| `C[C@H]1CN([C@@H](C)CO)C(=O)c2cccc(NC(=O)c3ccc(-c4nccs4)cc3)c2O[C@@H]1CN(C)CC1CCCCC1` | -28.84 |
| `C[C@@H]1CN([C@@H](C)CO)C(=O)c2cc(NC(=O)Nc3ccc(F)cc3)ccc2O[C@@H](C)CCCCO[C@H]1CN(C)Cc1ccc2c(c1)OCO2` | -50.17 |
| `COc1ccc(-c2ccc([C@@H]3[C@H]4CN(C(=O)c5ccc6c(c5)OCO6)CCCCN4[C@H]3CO)cc2)cc1` | -45.2 |
| `O=C(C[C@H]1CC[C@@H]2[C@H](COC[C@H](O)CN2S(=O)(=O)c2ccc(Cl)cc2)O1)N[C@H]1CCN(Cc2ccccc2)C1` | -30.16 |
| `O=C(Nc1ccccc1F)N1CCCCN2[C@@H](CO)[C@@H](c3ccc(C#Cc4ccccc4)cc3)[C@@H]2C1` | -74.5 |